# Results from PubChem BioAssay AID720641 (ICCB-Longwood Screening Facility, Harvard Medical School, 2013).
# Some of the results follow.
# Test: S. aureus growth inhibition at 42 and 30 °C, primary screen, LtaS inhibitor project, RN4220, two temperatures (AID 720641)
# Conditions: OD600, 20 h, 42 °C, measured here: growth at 30 °C, stronger effect = lower value
row,SMILES,relative growth
1,CN(C)C1(CNC(=O)c2ccc(C(C)(C)C)cc2)CCCCC1,84.1%
2,CC1CN(Cc2ccccc2)CCC1=O (configuration not stated),84.3%
3,CCN1CCC(Nc2ccc(F)cc2)CC1,111%
4,CC1CN(C)C(C)CC1Nc1ccccc1 (configuration not stated),75.6%
5,Cc1ccccc1C(=O)NCC1(N(C)C)CCCCC1,89%
6,CC1CN(CCc2ccccc2)C(C)CC1=O (configuration not stated),85.5%
7,CN(C)c1ccc(C(=O)NCC2(N3CCCCC3)CCCCC2)cc1,97.7%
8,CC(C)(C)c1ccc(C(=O)NCC2(N3CCOCC3)CCCCC2)cc1,95.7%
9,CCOc1ncccc1C(=O)NCC1(N(C)C)CCCCC1,92.3%
10,COc1cc(C(=O)NCC2(N3CCOCC3)CCCCC2)cc(OC)c1OC,90.9%
11,O=C(NCC1(N2CCCCC2)CCCCC1)c1n[nH]c2ccccc12,85.1%
12,CCOc1ncccc1C(=O)NCC1(N2CCCCC2)CCCCC1,92.2%
13,NC(=O)C1(Nc2ccccc2)CCN(Cc2ccccc2)CC1,85.1%
14,O=C1CCN(CCc2ccccc2)CC1,85.6%
15,CN1CCC(Nc2ccc(F)cc2)CC1,112%
16,O=C(NCC1(N2CCOCC2)CCCCC1)c1ccccc1[N+](=O)[O-],92.6%
17,O=C(NCC1(N2CCOCC2)CCCCC1)c1ccc([N+](=O)[O-])cc1,94.2%
18,O=C(NCC1(N2CCOCC2)CCCCC1)c1cc2ccccc2cc1O,79.8%
19,O=C(NCC1(N2CCOCC2)CCCCC1)c1ccccc1,90.5%
20,CCCN1CCC(Nc2cc(OC)cc(OC)c2)CC1,91.2%
21,Cc1c(C(=O)NCC2(N3CCOCC3)CCCCC2)oc2c(Cl)cccc12,90.1%

row,SMILES,relative growth
1,Cn1nc(C(=O)NCC2(N3CCCCC3)CCCCC2)c2ccccc2c1=O,90.8%
2,CC(C)(C)OC(=O)N1CCC(Nc2ccc(OC(F)(F)F)cc2)CC1,90.7%
3,CCOc1ccc(C(=O)NCC2(N3CCOCC3)CCCCC2)cc1,93.6%
4,CCCOc1cccc(C(=O)NCC2(N3CCOCC3)CCCCC2)c1,93.9%
5,FC(F)(F)Oc1ccc(NC2CCNCC2)cc1,99%
6,NC(=O)C1(Nc2ccc(F)cc2)CCNCC1,81.2%
7,c1ccc(CN2CCC(Nc3ccc4c(c3)OCO4)CC2)cc1,77%
8,O=C(NCC1(N2CCOCC2)CCCCC1)c1ccccc1Br,100%
9,Cc1ccc(C(=O)NCC2(N(C)C)CCCCC2)o1,96.2%
10,CCCCOc1ccccc1C(=O)NCC1(N2CCOCC2)CCCCC1,81.9%
11,CCCN1CCC(Nc2ccc(OC)c(OC)c2)CC1,79.6%
12,COc1ccc(C(=O)NCC2(N3CCCCC3)CCCCC2)cc1,89%
13,Cc1ccccc1NC1CC(C)(C)NC(C)(C)C1,85.5%
14,CC1CN(CCc2ccccc2)CCC1=O (configuration not stated),89.2%
15,N#CC1(Nc2ccccc2)CCN(Cc2ccccc2)CC1,90.7%
16,O=C1CCN(Cc2ccccc2)CC1,102%
17,O=C(NCC1(N2CCOCC2)CCCCC1)c1ccc2nc[nH]c2c1,92.5%
18,O=C(NCC1(N2CCOCC2)CCCCC1)c1ccc(Cl)cc1,100%
19,COc1ccccc1C(=O)NCC1(N2CCOCC2)CCCCC1,89.2%
20,CCOC(=O)N1CCC(Nc2ccc(F)cc2)CC1,111%
21,CCOC(=O)N1CCC(Nc2cccc(C)c2)CC1,104%
